PubChem BioAssay AID1259308 | NCATS, 2017
Test: 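Genes whose loss raises luciferase production in HEK293 cells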 (primary screen). Cells: human HEK293 embryonic kidney cells stably expressing firefly luciferase (HEK-CMV-Luc2-Hygro). Reagent: single siRNA against human genes, 0.8 pmol siRNA per well. Timing: 72 h. Detection: 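Reporter luminescence and viable-cell signal on separate replicate plates, given as percent of non-targeting control and median/MAD z-scores, plus per-cell luciferase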. Scale: total luciferase, z-score: higher = more reporter protein produced. Call rule: 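Active when the median/MAD z-score for overall luciferase is greater than 3; a gene was taken forward for validation with new siRNAs if at least two of its three siRNAs passed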. Calls: active = raised luciferase; inactive = no rise.
In all, the deposit lists about 59,000 reagents; below is a random part of them. Of all reagents, about 1,510 (2.6%) got an active call. 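Calls use total luciferase alone and ignore viability, so some active siRNAs may act by altering cell number.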 The numbers tell different reagents against one gene apart. Not all columns of the deposit are shown.

EIF5A2 (GeneID 56648) #1 gave total luciferase, z-score 0.109; inactive.
Against EIF5A2 (GeneID 56648) #2, the values are total luciferase, z-score -1.43; inactive.
Depletion of EIF5A2 (GeneID 56648) #3 gave: total luciferase, z-score -0.426; inactive.
Against TRIM46 (GeneID 80128) #1 the deposit lists total luciferase, z-score 0.243; inactive.
Silencing of TRIM46 (GeneID 80128) #2 came out at: total luciferase, z-score 2.35; inactive.
With knock-down of TRIM46 (GeneID 80128) #3, the record shows total luciferase, z-score 0.353; inactive.
After knock-down of MS4A5 (GeneID 64232) #1, the screen gave total luciferase, z-score -1.17; inactive.
For MS4A5 (GeneID 64232) #2 the deposit lists total luciferase, z-score 0.728; inactive.
For MS4A5 (GeneID 64232) #3 the deposit lists total luciferase, z-score 0.582; inactive.
KIR3DX1 (GeneID 90011) #1 showed total luciferase, z-score -1.54; inactive.
Against KIR3DX1 (GeneID 90011) #2 the deposit lists total luciferase, z-score 1.68; inactive.
Silencing of KIR3DX1 (GeneID 90011) #3 came out at: total luciferase, z-score 1.41; inactive.
With knock-down of IRAK1 (GeneID 3654) #1 the results were total luciferase, z-score -0.964; inactive.
IRAK1 (GeneID 3654) #2 showed total luciferase, z-score -0.502; inactive.
Against IRAK1 (GeneID 3654) #3, the entry reads total luciferase, z-score 0.306; inactive.
Depletion of MOG (GeneID 4340) #1 came out at: total luciferase, z-score 0.242; inactive.
Against MOG (GeneID 4340) #2, the values are total luciferase, z-score 0.677; inactive.
MOG (GeneID 4340) #3 showed total luciferase, z-score -1.87; inactive.
Knock-down of LINC01829 (GeneID 644838) #1 gave: total luciferase, z-score -1.64; inactive.
With knock-down of LINC01829 (GeneID 644838) #2 the results were total luciferase, z-score -0.951; inactive.
For LINC01829 (GeneID 644838) #3, the entry reads total luciferase, z-score -1.47; inactive.
ABLIM3 (GeneID 22885) #1 showed total luciferase, z-score 0.676; inactive.
With knock-down of ABLIM3 (GeneID 22885) #2 the results were total luciferase, z-score -1.26; inactive.
Depletion of ABLIM3 (GeneID 22885) #3 came out at: total luciferase, z-score -0.896; inactive.
For ZFYVE27 (GeneID 118813) #1, the entry reads total luciferase, z-score 0.677; inactive.
ZFYVE27 (GeneID 118813) #2 scored total luciferase, z-score -0.873; inactive.
Depletion of ZFYVE27 (GeneID 118813) #3 resulted in: total luciferase, z-score -0.719; inactive.
THEMIS2 (GeneID 9473) #1 showed total luciferase, z-score 0.227; inactive.
Silencing of THEMIS2 (GeneID 9473) #2 resulted in: total luciferase, z-score -0.349; inactive.
THEMIS2 (GeneID 9473) #3 showed total luciferase, z-score 0.972; inactive.
CPO (GeneID 130749) #1 scored total luciferase, z-score -0.189; inactive.
Silencing of CPO (GeneID 130749) #2 gave: total luciferase, z-score -0.106; inactive.
CPO (GeneID 130749) #3 showed total luciferase, z-score -0.231; inactive.
Silencing of SCGB2B2 (GeneID 284402) #1 resulted in: total luciferase, z-score 0.68; inactive.
With knock-down of SCGB2B2 (GeneID 284402) #2 the results were total luciferase, z-score 0.177; inactive.
Depletion of SCGB2B2 (GeneID 284402) #3 gave: total luciferase, z-score 0.428; inactive.
SMG6 (GeneID 23293) #1 gave total luciferase, z-score 0.478; inactive.
With knock-down of SMG6 (GeneID 23293) #2, the record shows total luciferase, z-score 0.178; inactive.
For SMG6 (GeneID 23293) #3, the entry reads total luciferase, z-score -0.982; inactive.
Silencing of MBD3L2 (GeneID 125997) #1 gave: total luciferase, z-score 0.112; inactive.
MBD3L2 (GeneID 125997) #2 gave total luciferase, z-score 0.205; inactive.
For MBD3L2 (GeneID 125997) #3, the values are total luciferase, z-score 1.13; inactive.

Taken from above.
SCGB2B2 (GeneID 284402) #1, activity call: inactive
Value for ABLIM3 (GeneID 22885) #2 in “activity call”: inactive
Under “total luciferase, z-score”, KIR3DX1 (GeneID 90011) #1 shows -1.54
Value for EIF5A2 (GeneID 56648) #3 under “activity call”: inactive
